{"source": "PubChem BioAssay AID504444", "about": "(National Center for Advancing Translational Sciences (NCATS), 2011)", "note": "Several values for one entry are separate records, joined by “and”; a condition that tells them apart may be missing. Equal entries are not always repeated. The campaign covered roughly 360,000 compounds. About 7,500 (2.1%) were called active. The inconclusive results got no clear call from the source; some entries with a clear call stand among them for comparison. Calls follow the shape of the dose curve; as a rule, active = well fitted inhibition curve with a large enough effect; inconclusive = small, poorly fitted or top-dose-only effect, or effect the other way; inactive = flat fitted curve, though single readings scatter. Potencies of inconclusive entries are doubtful fits and often do not repeat. % is scaled to controls: 0 for no effect and ±100 for the full control effect; potency is read from the fitted curve at half-maximal effect."}
{"assay": "Nrf2 qHTS screen for inhibitors; also: nearly all actives have a fitted effect of over 60% in size", "settings": "A549 ARE-Fluc reporter, luciferase luminescence, 18-24 h; activity change, negative = inhibition: at 46 µM (top of the series)", "how_it_was_run": "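A549 ARE_Fluc cells (5000/well, 5% FBS OPTI-MEM) pre-incubated 2 h, then treated with compounds 18-24 h at 37C/5% CO2 in concentration-response. CellTiter-Fluor viability read first; BugLite luciferase luminescence after 15 min at room temperature gives Nrf2 activity.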"}
{"smiles": "O=C(CC1(CC2=NS(=O)(=O)c3ccccc3N2)CCCC1)NCCc1ccccc1", "activity change, negative = inhibition": "inactive: 4.25%"}
{"smiles": "Nc1nonc1-n1nnc(C(=O)N/N=C\\c2ccncc2)c1CN1CCCCC1", "Potency": "inconclusive: 29.1 µM [falling, single point]"}
{"smiles": "Cc1ccc(OCCSc2nc3ccccc3n2CC(=O)N2CCCCC2)cc1C", "Potency": "inconclusive: 29.1 µM [falling, single point]"}
{"smiles": "COc1cc2cnc(-c3ccccc3)c(-c3ccc(C(F)(F)F)cc3)c2cc1OC", "Potency": "inconclusive: 20.6 µM [falling, single point]"}
{"smiles": "Cc1onc(-c2ccccc2)c1C(=O)NCC(=O)Nc1cc(Cl)ccc1Cl", "Potency": "inconclusive: 18.4 µM [falling, partial curve]"}
{"smiles": "COC(=O)c1ccccc1NC(=O)Cn1ncc2c(C)n(Cc3ccc(F)cc3)c(C)c2c1=O", "Potency": "inconclusive: 29.1 µM [falling, single point]"}
{"smiles": "Cc1sc2ncn(CC(=O)NCc3ccco3)c(=O)c2c1-c1ccccc1", "Potency": "inconclusive: 0.92 µM [activator, full curve, poor fit]"}
{"smiles": "CCC/C=C1/CCCOC(C(=O)NCC2CC2)(C(F)(F)F)C1", "note": "(stereo unspecified)", "activity change, negative = inhibition": "inactive: 19.9%"}
{"smiles": "C/C(=C\\C(=O)c1ccc(F)cc1)NCc1ccc2c(c1)OCO2", "Potency": "inconclusive: 25.9 µM [falling, single point]"}
{"smiles": "CCN1CCN(CC(=O)Nc2cc(S(=O)(=O)N(CC)c3ccccc3)ccc2Cl)CC1", "Potency": "inconclusive: 25.9 µM [activator, partial curve, poor fit]"}
{"smiles": "CCC(=O)Nc1cc2[nH]c(=O)cc(C)c2cc1C", "Potency": "inconclusive: 4.61 µM [falling, full curve]"}
{"smiles": "Cn1c(=O)cc(OCC(=O)N2CCN(c3ccccc3F)CC2)c2ccccc21", "Potency": "inconclusive: 29.1 µM [falling, partial curve, poor fit]"}
{"smiles": "O=C(CCCCn1c(=O)c2ccccc2n(Cc2ccccc2F)c1=O)NCc1ccc2c(c1)OCO2", "activity change, negative = inhibition": "inactive: 4.34%"}
{"smiles": "COc1ccc(-c2cnnn2-c2ccc(NC(=O)c3ccc(S(=O)(=O)N4CCCCC4)cc3)cc2)cc1OC", "Potency": "inconclusive: 5.17 µM [falling, partial curve, poor fit]"}
{"smiles": "Cc1cnc(NC(=O)Cc2ccccc2Cl)s1", "Potency": "inconclusive: 23.1 µM [activator, single point]"}
{"smiles": "COc1cccc(C(=O)Nc2nnc(-c3ccccc3)s2)c1OC", "Potency": "inconclusive: 6.51 µM [activator, partial curve, poor fit]"}
{"smiles": "CC(=O)NCc1nnc2c3ccccc3c(-c3ccccc3)nn12", "activity change, negative = inhibition": "inactive: -11.5%"}
{"smiles": "COc1ccc(CNC(=O)CCc2nc3cccnc3n2Cc2ccc(OC)cc2)cc1", "activity change, negative = inhibition": "inactive: -3.53%"}
{"smiles": "O=C1OC(N2C(=O)CC[C@H]2C(=O)NCC2CCCO2)c2ccccc21", "note": "(stereo partly specified)", "activity change, negative = inhibition": "inactive: 5.67%"}
{"smiles": "O=C(CCCC(=O)N1CCN(c2cccc(Cl)c2)CC1)c1ccccc1", "activity change, negative = inhibition": "inactive: -13.1%"}
{"smiles": "O=C(Nc1ccc(S(=O)(=O)Nc2nccs2)cc1)c1cc(=O)[nH]c2ccccc12", "Potency": "inconclusive: 16.4 µM [activator, single point]"}
{"smiles": "COc1cc(/C=N/Nc2ccc(Cl)c(C(=O)O)c2)ccc1OCC(=O)N1C(C)CCCC1C", "note": "(stereo unspecified)", "Potency": "inconclusive: 2.06 µM [falling, partial curve, poor fit]"}
{"smiles": "Cc1ccccc1Cc1c(C)nc2c(-c3ccccc3)c(C)[nH]n2c1=O", "Potency": "active: 18.4 µM"}
{"smiles": "COc1ccc(-n2c(O)c(C=NC3CC3)c(=O)[nH]c2=O)cc1", "Potency": "inconclusive: 7.31 µM [falling, partial curve, poor fit]"}
{"smiles": "c1ccc(-c2noc(-c3ccncc3)n2)nc1", "Potency": "inconclusive: 0.461 µM [activator, full curve, poor fit]"}
{"smiles": "Cc1nc2cc(NC(=O)c3ccc(Cl)cc3)ccc2n1C", "Potency": "inconclusive: 0.13 µM [activator, full curve, poor fit]"}
{"smiles": "COc1ccc(CCNC(=O)Cn2c(=O)n(-c3ccc(C)c(F)c3)c(=O)c3sccc32)cc1OC", "Potency": "inconclusive: 10.3 µM [falling, partial curve]"}
{"smiles": "CCC(C)c1ccc(NC(=O)CSc2nncn2N)cc1", "note": "(stereo unspecified)", "Potency": "inconclusive: 4.11 µM [activator, full curve]"}
{"smiles": "CCN(c1ccccc1)S(=O)(=O)c1ccc(Oc2ccc([N+](=O)[O-])cc2)nc1", "Potency": "inconclusive: 20.6 µM [falling, single point]"}
{"smiles": "CN(C(=O)COC(=O)Cc1ccc(Cl)cc1)C1CCCCC1", "activity change, negative = inhibition": "inactive: -3.7%"}
{"smiles": "O=c1c(O)c(-c2ccc3c(c2)OCO3)oc2ccccc12", "Potency": "inconclusive: 14.6 µM [activator, partial curve, poor fit]"}
{"smiles": "COc1ccc(C(=O)COC(=O)c2ccc(Cl)nc2)cc1OC", "activity change, negative = inhibition": "inactive: -21.5%"}
{"smiles": "O=C(CN1C(=O)S/C(=C/C=C/c2ccccc2)C1=O)Nc1ccc(C(=O)O)cc1", "Potency": "inconclusive: 18.4 µM [activator, single point]"}
{"smiles": "Cc1c(Cl)cccc1NC(=O)CCC(=O)N/N=C/c1ccc[nH]1", "Potency": "active: 18.4 µM"}
{"smiles": "C=CCn1c(SCn2nnc3ccccc3c2=O)nnc1-c1ccc(Br)cc1", "Potency": "inconclusive: 23.1 µM [activator, partial curve]"}
{"smiles": "COc1cc(C2C3=C(COC3=O)Oc3cc4c(cc32)OCO4)cc(OC)c1OC", "note": "(stereo unspecified)", "Potency": "inconclusive: 8.2 µM [activator, partial curve, poor fit] and inconclusive: 517 nM [activator, full curve, poor fit]"}
{"smiles": "CN(C(=O)Cn1c(=O)n(Cc2ccc(C(=O)NCc3ccc4c(c3)OCO4)cc2)c(=O)c2ccccc21)c1ccccc1", "Potency": "inconclusive: 7.31 µM [falling, partial curve]"}
{"smiles": "Cc1cc2c(cc1S(=O)(=O)Nc1cccc(F)c1C)NC(=O)CO2", "Potency": "inconclusive: 6.51 µM [falling, full curve, poor fit]"}
{"smiles": "O=C(Nc1nc(-c2ccccn2)cs1)c1ccc(F)c(S(=O)(=O)N2CCOCC2)c1", "Potency": "active: 8.2 µM"}
{"smiles": "CCn1c(=O)cc(OCC(=O)Nc2ccc3c(c2)OCCO3)c2ccccc21", "Potency": "inconclusive: 18.4 µM [falling, single point]"}
{"smiles": "CCOC(=O)N1CCN(C(=O)c2ccc3nc(SCc4ccc(F)cc4)n(C)c3c2)CC1", "Potency": "active: 16.4 µM"}
